At least one peptide structure holds a part that was inferred or is arguable (an end, a ring closure or a residue). Ends that are not written are not given here.
System: canine model high-rate paced (HRP) to a heart rate of 240 bpm to simulate HF
Test: Pharmacodynamic study of VD in canines: 10-day subcutaneous infusion in high-rate paced heart failure model
Assay type: in vivo
Description: A pharmaceutical formulation of VD was prepared in a Tris buffer. 16.0 g glycerol, 6.05 g tris-(hydroxymethyl)-aminomethane (“Tris”), 2.50 g meta cresol were mixed in a 1.00 L volumetric flask. Approximately 900 mL nanopure water was added to the volumetric flask and the mixture was magnetically stirred to reach complete dissolution. 4 normal hydrochloric acid was used to adjust pH to 7.3 at 25° C. Then, the flask was filled to 1 L mark with nanopure water. The pH was rechecked and verified to be 7.3 at 25° C. The pH 7.3 Tris buffer was stored at 2-8° C. until use.
Lyophilized VD peptide (Bachem) was weighted into a glass vial and dissolved into a known volume of the Tris buffer to a concentration between 1 mg/mL and 10 mg/mL. The VD peptide was dissolved by gentle mixing and the solution was allowed to rest for between 20 and 30 minutes. The pH of the solution was checked and adjusted to 7.3 with 0.1 N sodium hydroxide. The solution was filtered through a 0.22 micron sterile filter into a sterile glass vial and stored at 2 to 8° C. until use.
The pharmacodynamic effects of VD delivered by subcutaneous infusion were investigated in a canine model high-rate paced (HRP) to a heart rate of 240 bpm (ventricular pacing) over a period of 10 days to simulate HF. The canines were divided into a control group and an experimental group. The control group received a continuous subcutaneous infusion of the Tris buffer without VD over the course of the 10 day period. The experimental group received continuous subcutaneous infusion of VD dissolved in Tris buffer at a dosing rate of 100 ng/kg·min based upon the body weight of individual canines.
Seven days prior to the beginning of HRP (Day −7), all dogs were instrumented for ventricular pacing with an IPG (implantable pulse generator) including an RA (right atrium) and RV (right ventricle) lead, and a DSI (Digital Sciences International) device in the femoral artery for arterial blood pressure monitoring. Glomerular filtration rate (GFR) was measured by iohexol clearance on the day before the beginning of HRP (Day −1). On Day 0, high-rate pacing was initiated at a rate of 240 BPM (beats per minute) and maintained continuously over the course of a 10 day period (Days 0-10). After HRP was started on Day 0, urine, blood, and hemodynamic data was collected from conscious animals to serve as a baseline.
On Days 0-10, in combination with pacing, each animal received continuous subcutaneous (SQ) infusion of an agent (Tris buffer solution for control animals and vessel dilator in Tris buffer for experimental animals) delivered via external catheter and pump. SQ infusion was performed using Medtronic MiniMed® 407C pumps equipped with 3.0 mL reservoirs (#MMT-103A) and Medtronic Silhouette® combo infusion sets (#MMT373). GFR measurements were repeated on Day 9. On Day 10 (with HRP On), a pre-term monitor was performed for urine and hemodynamic data collection on conscious animals. Once the data was collected, HRP was turned off and the animals were euthanized.
One canine died in both the experimental and control groups during the study; therefore, measurements taken on Day 0 were with 5 canines (n=5) and measurements taken on Day 10 were with 4 canines (n=4).

In the case of “EVVPPQVLSEPNEEAGAALSPLPEVPPWTGEVSPAQR [VD, Vessel Dilator]”, the “other outcomes (urinary potassium, protein, creatinine excretion; serum renin, angiotensin, aldosterone, creatinine, urea, albumin, total protein, ANP, NT-proBNP; echocardiogram; pathology)” value (100 ng/kg·min SC, 10 days) is reported as “no significant treatment effects”, the “extent of the increase in pulmonary capillary wedge pressure” value (Day 0 to Day 10, 100 ng/kg·min SC infusion, difference on Day 10 not statistically significant) is reported as “smaller than that observed in the control group” and the right atrial pressure (Day 0 to Day 10, 100 ng/kg·min SC infusion, significantly less than control (6 to 16 mmHg), p<0.05) is reported as “increased slightly”. For the same sequence, the “decrease in sodium excretion rate” value (Day 10 vs Day 0, 100 ng/kg·min SC infusion, control 76% decrease) was 59%, the “decrease in urine flow” value (Day 10 vs Day 0, 100 ng/kg·min SC infusion, control 77% decrease, p<0.05 Mann-Whitney) was 33% and the “cardiac output (CO) and mean arterial pressure (MAP)” value (after 10 days of high-rate pacing, 100 ng/kg·min SC) was “no treatment effect”.
